Assay results published in the supplement of paper PMC10849652.
The other results are listed elsewhere or left out.

Protein sequences, listed by entry. Tags and fused reporters are not part of them. Lines headed by an entry give the natural chain unless they say otherwise; changes in a name come on top.
UniProt Q13371: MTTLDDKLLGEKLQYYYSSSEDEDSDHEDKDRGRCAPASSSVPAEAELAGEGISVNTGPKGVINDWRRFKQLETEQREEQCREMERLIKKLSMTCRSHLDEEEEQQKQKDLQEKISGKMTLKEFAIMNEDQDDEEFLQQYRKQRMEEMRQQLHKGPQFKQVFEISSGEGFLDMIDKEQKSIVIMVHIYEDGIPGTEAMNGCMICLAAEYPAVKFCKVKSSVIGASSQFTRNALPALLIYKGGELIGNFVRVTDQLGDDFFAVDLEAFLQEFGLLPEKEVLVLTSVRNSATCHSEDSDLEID
UniProt Q8NBM8: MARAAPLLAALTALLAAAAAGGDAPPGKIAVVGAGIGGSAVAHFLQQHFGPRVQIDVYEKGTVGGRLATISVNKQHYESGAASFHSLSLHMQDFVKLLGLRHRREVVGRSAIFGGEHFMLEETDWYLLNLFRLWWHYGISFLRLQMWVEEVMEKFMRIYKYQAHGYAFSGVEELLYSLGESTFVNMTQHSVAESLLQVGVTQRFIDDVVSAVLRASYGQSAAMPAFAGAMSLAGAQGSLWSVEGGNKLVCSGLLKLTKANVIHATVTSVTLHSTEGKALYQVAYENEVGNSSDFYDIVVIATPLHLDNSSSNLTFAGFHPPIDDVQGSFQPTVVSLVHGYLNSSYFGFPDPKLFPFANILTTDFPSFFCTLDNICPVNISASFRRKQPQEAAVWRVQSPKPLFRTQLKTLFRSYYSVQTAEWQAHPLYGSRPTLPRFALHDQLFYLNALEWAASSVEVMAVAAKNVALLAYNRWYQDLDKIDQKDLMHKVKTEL
UniProt Q15154: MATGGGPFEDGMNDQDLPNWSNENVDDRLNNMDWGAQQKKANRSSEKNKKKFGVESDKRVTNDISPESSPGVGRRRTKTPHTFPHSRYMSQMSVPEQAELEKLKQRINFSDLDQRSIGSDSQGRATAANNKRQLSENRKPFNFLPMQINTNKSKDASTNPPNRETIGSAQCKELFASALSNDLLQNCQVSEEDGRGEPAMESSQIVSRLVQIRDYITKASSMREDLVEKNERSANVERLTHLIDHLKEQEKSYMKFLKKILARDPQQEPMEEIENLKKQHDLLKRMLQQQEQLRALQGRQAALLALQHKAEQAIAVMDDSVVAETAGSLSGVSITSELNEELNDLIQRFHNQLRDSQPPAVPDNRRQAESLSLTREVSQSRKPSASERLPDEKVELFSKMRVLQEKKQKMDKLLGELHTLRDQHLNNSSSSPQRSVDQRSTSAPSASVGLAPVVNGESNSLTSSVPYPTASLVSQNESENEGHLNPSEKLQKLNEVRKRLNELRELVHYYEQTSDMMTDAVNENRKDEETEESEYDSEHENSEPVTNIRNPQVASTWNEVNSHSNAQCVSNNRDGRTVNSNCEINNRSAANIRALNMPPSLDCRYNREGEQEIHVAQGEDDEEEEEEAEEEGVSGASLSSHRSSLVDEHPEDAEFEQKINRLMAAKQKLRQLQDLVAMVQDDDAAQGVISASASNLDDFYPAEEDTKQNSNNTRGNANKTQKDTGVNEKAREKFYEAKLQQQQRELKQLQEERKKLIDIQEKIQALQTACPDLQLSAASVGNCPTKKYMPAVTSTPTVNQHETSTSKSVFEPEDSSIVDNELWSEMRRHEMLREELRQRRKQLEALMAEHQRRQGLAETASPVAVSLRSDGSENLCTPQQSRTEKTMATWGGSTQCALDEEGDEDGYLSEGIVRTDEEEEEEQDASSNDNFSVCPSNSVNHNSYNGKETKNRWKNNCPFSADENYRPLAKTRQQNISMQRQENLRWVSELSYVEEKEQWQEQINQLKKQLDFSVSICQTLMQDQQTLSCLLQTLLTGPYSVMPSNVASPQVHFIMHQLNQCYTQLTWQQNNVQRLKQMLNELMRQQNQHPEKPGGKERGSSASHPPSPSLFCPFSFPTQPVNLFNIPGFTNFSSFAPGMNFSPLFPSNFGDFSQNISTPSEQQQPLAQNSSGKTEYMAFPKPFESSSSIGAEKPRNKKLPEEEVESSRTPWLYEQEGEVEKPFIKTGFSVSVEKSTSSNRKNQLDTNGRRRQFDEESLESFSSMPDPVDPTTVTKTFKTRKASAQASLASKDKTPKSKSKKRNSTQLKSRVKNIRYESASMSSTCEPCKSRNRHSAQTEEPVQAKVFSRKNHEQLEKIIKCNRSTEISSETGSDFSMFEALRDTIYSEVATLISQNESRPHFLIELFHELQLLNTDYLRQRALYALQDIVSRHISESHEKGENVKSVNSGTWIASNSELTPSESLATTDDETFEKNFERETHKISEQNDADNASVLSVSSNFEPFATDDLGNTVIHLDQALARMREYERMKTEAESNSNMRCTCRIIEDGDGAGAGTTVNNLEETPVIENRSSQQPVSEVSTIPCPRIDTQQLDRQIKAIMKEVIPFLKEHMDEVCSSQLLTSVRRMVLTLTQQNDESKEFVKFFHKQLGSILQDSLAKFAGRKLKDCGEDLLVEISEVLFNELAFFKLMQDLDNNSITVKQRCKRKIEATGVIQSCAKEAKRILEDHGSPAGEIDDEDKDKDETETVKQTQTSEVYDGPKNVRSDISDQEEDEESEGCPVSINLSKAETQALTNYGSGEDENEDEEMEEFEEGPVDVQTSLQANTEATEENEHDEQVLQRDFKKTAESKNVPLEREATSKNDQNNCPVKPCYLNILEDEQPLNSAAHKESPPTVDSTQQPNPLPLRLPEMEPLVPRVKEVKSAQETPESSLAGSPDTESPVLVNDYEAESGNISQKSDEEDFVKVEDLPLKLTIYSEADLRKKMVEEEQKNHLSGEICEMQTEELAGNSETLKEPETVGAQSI
UniProt Q9Y5K3: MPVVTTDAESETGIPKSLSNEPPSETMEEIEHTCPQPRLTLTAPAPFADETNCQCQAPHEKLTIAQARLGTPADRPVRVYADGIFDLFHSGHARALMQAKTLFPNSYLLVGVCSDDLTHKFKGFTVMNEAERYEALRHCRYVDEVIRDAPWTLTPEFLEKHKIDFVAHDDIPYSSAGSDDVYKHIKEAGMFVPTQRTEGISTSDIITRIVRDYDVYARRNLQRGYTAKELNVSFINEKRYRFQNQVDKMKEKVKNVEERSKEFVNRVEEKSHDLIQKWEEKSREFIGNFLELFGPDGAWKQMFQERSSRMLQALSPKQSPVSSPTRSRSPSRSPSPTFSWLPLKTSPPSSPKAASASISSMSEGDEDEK
UniProt P13667: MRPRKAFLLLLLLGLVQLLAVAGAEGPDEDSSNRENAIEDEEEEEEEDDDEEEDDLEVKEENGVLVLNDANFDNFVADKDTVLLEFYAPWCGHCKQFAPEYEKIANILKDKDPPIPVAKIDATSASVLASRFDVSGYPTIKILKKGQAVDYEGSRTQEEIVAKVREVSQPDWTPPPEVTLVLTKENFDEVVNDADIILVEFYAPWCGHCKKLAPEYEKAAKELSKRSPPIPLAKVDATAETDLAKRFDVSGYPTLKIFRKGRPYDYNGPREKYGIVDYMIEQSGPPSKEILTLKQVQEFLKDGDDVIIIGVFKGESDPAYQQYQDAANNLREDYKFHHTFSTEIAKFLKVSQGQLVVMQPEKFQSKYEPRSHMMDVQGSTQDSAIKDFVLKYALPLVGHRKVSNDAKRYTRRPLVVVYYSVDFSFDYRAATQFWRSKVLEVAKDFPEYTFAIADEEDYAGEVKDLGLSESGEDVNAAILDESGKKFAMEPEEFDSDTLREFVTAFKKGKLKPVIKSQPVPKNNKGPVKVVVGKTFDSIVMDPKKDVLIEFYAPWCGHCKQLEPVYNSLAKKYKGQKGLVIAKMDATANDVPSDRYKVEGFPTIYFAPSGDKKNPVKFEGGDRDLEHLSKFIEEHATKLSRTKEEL
UniProt P52209: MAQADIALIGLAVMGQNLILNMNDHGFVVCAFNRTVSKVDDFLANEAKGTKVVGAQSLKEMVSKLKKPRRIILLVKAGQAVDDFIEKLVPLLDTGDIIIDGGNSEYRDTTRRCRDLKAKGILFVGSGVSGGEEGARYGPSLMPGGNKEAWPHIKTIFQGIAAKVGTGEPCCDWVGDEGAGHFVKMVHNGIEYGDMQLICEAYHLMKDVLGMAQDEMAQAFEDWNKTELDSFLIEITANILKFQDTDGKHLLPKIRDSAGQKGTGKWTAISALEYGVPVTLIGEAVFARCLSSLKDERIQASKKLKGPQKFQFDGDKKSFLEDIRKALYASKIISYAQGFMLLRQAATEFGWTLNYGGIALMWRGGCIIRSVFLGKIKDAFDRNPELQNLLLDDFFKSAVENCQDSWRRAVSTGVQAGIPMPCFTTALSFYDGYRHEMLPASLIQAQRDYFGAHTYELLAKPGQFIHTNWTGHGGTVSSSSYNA
UniProt P57721, whole entry, looked up: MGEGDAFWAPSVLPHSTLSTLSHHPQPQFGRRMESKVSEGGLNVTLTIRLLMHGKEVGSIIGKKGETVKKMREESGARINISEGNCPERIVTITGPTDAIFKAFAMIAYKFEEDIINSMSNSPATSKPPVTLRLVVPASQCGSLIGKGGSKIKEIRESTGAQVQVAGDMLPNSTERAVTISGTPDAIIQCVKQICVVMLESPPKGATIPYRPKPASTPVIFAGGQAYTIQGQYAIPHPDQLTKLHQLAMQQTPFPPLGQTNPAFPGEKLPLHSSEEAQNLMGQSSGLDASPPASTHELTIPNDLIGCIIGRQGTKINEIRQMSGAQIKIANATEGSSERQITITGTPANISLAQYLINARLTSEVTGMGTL
UniProt Q16822, whole entry, looked up: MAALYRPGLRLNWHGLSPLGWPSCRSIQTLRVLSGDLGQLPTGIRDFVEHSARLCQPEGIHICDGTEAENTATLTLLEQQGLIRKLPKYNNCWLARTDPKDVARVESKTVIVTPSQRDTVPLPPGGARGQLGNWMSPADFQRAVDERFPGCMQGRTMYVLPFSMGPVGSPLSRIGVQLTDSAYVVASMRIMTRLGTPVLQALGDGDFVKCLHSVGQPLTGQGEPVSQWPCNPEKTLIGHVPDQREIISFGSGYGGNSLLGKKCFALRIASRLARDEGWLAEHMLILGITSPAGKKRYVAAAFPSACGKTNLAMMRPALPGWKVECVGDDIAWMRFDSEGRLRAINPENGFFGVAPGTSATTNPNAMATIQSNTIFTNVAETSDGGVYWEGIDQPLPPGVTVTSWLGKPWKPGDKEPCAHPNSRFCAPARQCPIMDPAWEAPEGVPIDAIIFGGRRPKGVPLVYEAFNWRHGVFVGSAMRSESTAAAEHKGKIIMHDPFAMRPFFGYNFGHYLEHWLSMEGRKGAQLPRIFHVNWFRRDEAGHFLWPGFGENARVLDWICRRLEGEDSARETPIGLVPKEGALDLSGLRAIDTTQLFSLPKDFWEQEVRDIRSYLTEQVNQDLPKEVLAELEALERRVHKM
UniProt Q9NR12, whole entry, looked up: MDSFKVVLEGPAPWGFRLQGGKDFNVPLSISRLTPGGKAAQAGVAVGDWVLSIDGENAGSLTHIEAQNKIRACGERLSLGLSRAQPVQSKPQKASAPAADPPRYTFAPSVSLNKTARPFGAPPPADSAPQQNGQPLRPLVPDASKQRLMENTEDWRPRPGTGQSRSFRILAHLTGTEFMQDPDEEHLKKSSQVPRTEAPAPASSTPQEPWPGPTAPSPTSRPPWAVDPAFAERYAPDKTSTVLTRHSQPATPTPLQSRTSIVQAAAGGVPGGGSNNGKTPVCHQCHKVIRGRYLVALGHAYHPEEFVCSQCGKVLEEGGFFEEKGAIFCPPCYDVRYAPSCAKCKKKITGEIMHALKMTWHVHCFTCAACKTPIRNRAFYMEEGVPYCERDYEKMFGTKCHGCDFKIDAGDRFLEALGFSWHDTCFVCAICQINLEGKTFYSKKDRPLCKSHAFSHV
UniProt P08237: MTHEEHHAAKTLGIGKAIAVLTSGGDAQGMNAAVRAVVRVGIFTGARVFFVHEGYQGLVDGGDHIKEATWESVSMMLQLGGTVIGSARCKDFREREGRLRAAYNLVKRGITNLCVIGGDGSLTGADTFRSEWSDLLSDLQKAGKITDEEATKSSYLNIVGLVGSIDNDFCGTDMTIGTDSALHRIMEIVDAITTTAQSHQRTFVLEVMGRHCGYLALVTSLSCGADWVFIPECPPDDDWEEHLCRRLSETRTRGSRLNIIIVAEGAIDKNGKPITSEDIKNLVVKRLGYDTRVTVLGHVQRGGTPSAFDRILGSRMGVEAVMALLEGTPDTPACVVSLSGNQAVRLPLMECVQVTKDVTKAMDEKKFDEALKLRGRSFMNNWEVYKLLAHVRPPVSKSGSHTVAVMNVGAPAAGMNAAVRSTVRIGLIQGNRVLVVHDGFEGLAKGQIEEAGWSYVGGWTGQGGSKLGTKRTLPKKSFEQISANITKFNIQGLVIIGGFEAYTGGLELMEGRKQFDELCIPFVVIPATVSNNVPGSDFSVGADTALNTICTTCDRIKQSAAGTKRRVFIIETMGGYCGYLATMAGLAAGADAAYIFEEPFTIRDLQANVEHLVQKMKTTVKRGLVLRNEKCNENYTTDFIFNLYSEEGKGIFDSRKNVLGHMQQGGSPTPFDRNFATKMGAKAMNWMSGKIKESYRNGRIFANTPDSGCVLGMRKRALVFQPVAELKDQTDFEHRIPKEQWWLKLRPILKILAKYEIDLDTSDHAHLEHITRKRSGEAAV

Columns and labels:
Test in all cases: log2 fold change, soluble protein after heating vs DMSO (PISA); higher = thermal stabilisation; K562 lysate, 10 uM; active = over 0.2 and 3.5 SD of the protein, either way, in both replicates (recomputed)
nilotinib = compound: Cc1cn(-c2cc(NC(=O)c3ccc(C)c(Nc4nccc(-c5cccnc5)n4)c3)cc(C(F)(F)F)c2)cn1 [nilotinib]
Outline: (§1)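 Soluble protein was defined as the supernatant remaining after 21,000xg for 90 min, following pooling of heated aliquots and adjustment to 0.5% NP-40 at 4°C. Before that, crude K562 extract at 1 mg/mL protein in PBS pH 7.4 with 1 mM MgCl2 was treated with 10 μM compound for 30 min and heated for 3 min across 48°C-58°C. Quantification used TMTpro 16plex LC-MS/MS with channel sums equalised, and values are log-two fold changes in thermal stability relative to solvent controls from duplicates.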

[1] = compound: Cc1nc(Nc2n[nH]c3c2CN(C(=O)N[C@H](CN(C)C)c2ccccc2)C3(C)C)c2sccc2n1
Outline: as §1

dasatinib = compound: Cc1nc(Nc2ncc(C(=O)Nc3c(C)cccc3Cl)s2)cc(N2CCN(CCO)CC2)n1 [dasatinib]
Outline: as §1

[2] = compound: Cc1ncc(-c2ccnc(Nc3ccc(S(C)(=O)=O)cc3)n2)n1C(C)C
Outline: as §1

[3] = compound: Cn1cc(-c2ccc3c(c2)CCN3C(=O)Cc2cccc(C(F)(F)F)c2)c2c(N)ncnc21
Outline: as §1

quisinostat = compound: Cn1cc(CNCC2CCN(c3ncc(C(=O)NO)cn3)CC2)c2ccccc21 [quisinostat]
Outline: as §1

tipifarnib = compound: Cn1cncc1[C@@](N)(c1ccc(Cl)cc1)c1ccc2c(c1)c(-c1cccc(Cl)c1)cc(=O)n2C [tipifarnib]
Outline: as §1

[4] = compound: NC(=O)Nc1cc(-c2cccc(F)c2)sc1C(=O)N[C@H]1CCCNC1
Outline: as §1

[5] = compound: NC(=O)c1cnc(N[C@@H]2CCCC[C@@H]2N)nc1Nc1cccc(-n2nccn2)c1
Outline: as §1

[6] = compound: NC1(c2ccc(-c3nc4ccn5c(=O)[nH]nc5c4cc3-c3ccccc3)cc2)CCC1
Outline: as §1

Measured: log2 fold change

PDIA3 (UniProt H7BZJ3)
inactive: nilotinib -0.031 | [1] 0.046 | dasatinib 0.024 | [2] 0.18 | [3] -0.122 | quisinostat 0.004 | tipifarnib -0.021 | [4] -0.085 | [5] 0.013 | [6] 0.097

PDCL (UniProt Q13371)
inactive: nilotinib -0.04 | [1] 0.03 | dasatinib 0.009 | [2] 0.057 | [3] 0.001 | quisinostat -0.034 | tipifarnib -0.031 | [4] 0.025 | [5] -0.002 | [6] 0.026

PFKP (UniProt Q01813)
inactive: nilotinib 0.026 | [1] -0.014 | dasatinib 0.012 | [2] 0.003 | [3] 0.009 | quisinostat 0.024 | tipifarnib 0.016 | [4] 0 | [5] -0.008 | [6] -0.004

PCCB (UniProt P05166)
inactive: nilotinib 0.034 | [1] -0.021 | dasatinib 0.007 | [2] -0.005 | [3] -0.007 | quisinostat 0.006 | tipifarnib 0.002 | [4] 0.007 | [5] 0.005 | [6] 0.027

PCLO (UniProt Q9Y6V0)
inactive: nilotinib 0.041 | [1] -0.097 | dasatinib 0.068 | [2] 0.106 | [3] -0.023 | quisinostat -0.157 | tipifarnib 0.019 | [4] 0.177 | [5] 0.003 | [6] -0.093

PFAS (UniProt O15067)
inactive: nilotinib 0.015 | [1] -0.023 | dasatinib -0.031 | [2] -0.017 | [3] 0.008 | quisinostat -0.037 | tipifarnib 0.01 | [4] 0.01 | [5] 0.005 | [6] -0.009

PDAP1 (UniProt Q13442)
inactive: nilotinib 0 | [1] 0.002 | dasatinib 0.066 | [2] -0.01 | [3] -0.009 | quisinostat 0.013 | tipifarnib 0.044 | [4] 0.017 | [5] -0.016 | [6] -0.032

Reprinted from above (2 entries):
PFKP (UniProt Q01813)
inactive: nilotinib 0.026 | [1] -0.014 | dasatinib 0.012 | [2] 0.003 | [3] 0.009 | quisinostat 0.024 | tipifarnib 0.016 | [4] 0 | [5] -0.008 | [6] -0.004

PCCB (UniProt P05166)
inactive: nilotinib 0.034 | [1] -0.021 | dasatinib 0.007 | [2] -0.005 | [3] -0.007 | quisinostat 0.006 | tipifarnib 0.002 | [4] 0.007 | [5] 0.005 | [6] 0.027

Further results

PCYOX1L (UniProt Q8NBM8)
inactive: nilotinib -0.008 | [1] 0.024 | dasatinib 0.034 | [2] -0.044 | [3] -0.029 | quisinostat -0.103 | tipifarnib -0.022 | [4] 0.01 | [5] 0.012 | [6] -0.017

PDRG1 (UniProt Q9NUG6)
inactive: nilotinib -0.018 | [1] -0.015 | dasatinib 0.023 | [2] 0.052 | [3] 0.046 | quisinostat -0.038 | tipifarnib 0.141 | [4] -0.015 | [5] -0.003 | [6] 0.003

PCM1 (UniProt Q15154)
inactive: nilotinib -0.024 | [1] -0.012 | dasatinib -0.012 | [2] 0.019 | [3] 0.036 | quisinostat -0.077 | tipifarnib 0.008 | [4] 0.022 | [5] 0.016 | [6] 0.041

PGAM5 (UniProt Q96HS1)
inactive: nilotinib -0.009 | [1] 0.041 | dasatinib -0.008 | [2] -0.004 | [3] -0.005 | quisinostat -0.012 | tipifarnib -0.012 | [4] 0.015 | [5] 0.013 | [6] 0.015

PCYT1B (UniProt Q9Y5K3)
inactive: nilotinib -0.079 | [1] -0.003 | dasatinib 0 | [2] 0.022 | [3] -0.026 | quisinostat 0.039 | tipifarnib 0.047 | [4] -0.023 | [5] -0.008 | [6] 0.054

PDIA4 (UniProt P13667)
inactive: nilotinib 0.008 | [1] -0.006 | dasatinib 0.006 | [2] 0.014 | [3] 0.004 | quisinostat 0.154 | tipifarnib 0.029 | [4] -0.004 | [5] -0.02 | [6] 0.008

PARN (UniProt O95453)
inactive: nilotinib 0.012 | [1] -0.03 | dasatinib 0.01 | [2] -0.016 | [3] 0.015 | quisinostat -0.024 | tipifarnib -0.052 | [4] -0.011 | [5] 0.032 | [6] -0.007

PC (UniProt P11498)
inactive: nilotinib 0.037 | [1] -0.069 | dasatinib -0.028 | [2] -0.004 | [3] 0.015 | quisinostat 0.013 | tipifarnib -0.012 | [4] 0.037 | [5] 0.044 | [6] -0.008

PDCD10 (UniProt Q9BUL8)
inactive: nilotinib 0.006 | [1] 0.121 | dasatinib 0.077 | [2] 0.03 | [3] 0.013 | quisinostat -0.053 | tipifarnib -0.005 | [4] 0.114 | [5] -0.018 | [6] 0.004

PEX14 (UniProt O75381)
inactive: nilotinib 0.007 | [1] -0.015 | dasatinib -0.019 | [2] -0.007 | [3] 0.008 | quisinostat 0.005 | tipifarnib -0.029 | [4] -0.009 | [5] 0.016 | [6] -0.067

PEX11B (UniProt O96011)
inactive: nilotinib -0.098 | [1] 0.026 | dasatinib 0.09 | [2] 0.049 | [3] -0.017 | quisinostat -0.02 | tipifarnib -0.011 | [4] 0.031 | [5] -0.006 | [6] -0.009

PGD (UniProt P52209)
inactive: nilotinib -0.011 | [1] 0.005 | dasatinib 0.02 | [2] 0.017 | [3] -0.011 | quisinostat 0.007 | tipifarnib 0.015 | [4] -0.019 | [5] 0.003 | [6] 0.033

PBXIP1 (UniProt Q96AQ6)
inactive: nilotinib 0.012 | [1] -0.085 | dasatinib -0.021 | [2] 0.021 | [3] -0.009 | quisinostat 0.005 | tipifarnib 0.026 | [4] 0.003 | [5] 0.019 | [6] -0.028

PDSS2 (UniProt Q86YH6)
inactive: nilotinib 0.051 | [1] 0.006 | dasatinib -0.068 | [2] -0.021 | [3] 0.028 | quisinostat -0.111 | tipifarnib -0.018 | [4] 0.021 | [5] -0.04 | [6] -0.038

PCBP3 (UniProt P57721)
inactive: nilotinib 0.015 | [1] -0.022 | dasatinib -0.005 | [2] 0.018 | [3] -0.025 | quisinostat -0.004 | tipifarnib 0 | [4] -0.023 | [5] -0.014 | [6] 0.012

PGAM4 (UniProt Q8N0Y7)
inactive: nilotinib -0.001 | [1] 0.017 | dasatinib 0.036 | [2] -0.003 | [3] -0.062 | quisinostat -0.022 | tipifarnib 0.039 | [4] -0.003 | [5] -0.02 | [6] -0.009

PCBP2 isoform 3 (UniProt Q15366)
inactive: nilotinib 0.019 | [1] -0.012 | dasatinib -0.019 | [2] 0.015 | [3] 0.039 | quisinostat 0.044 | tipifarnib 0.005 | [4] 0 | [5] 0.005 | [6] 0.072

PCK2 (UniProt Q16822)
inactive: nilotinib 0.035 | [1] -0.016 | dasatinib -0.037 | [2] 0.027 | [3] 0.023 | quisinostat 0.021 | tipifarnib 0.029 | [4] -0.022 | [5] 0.022 | [6] 0.052

PDLIM7 (UniProt Q9NR12)
inactive: nilotinib 0.022 | [1] -0.022 | dasatinib 0.013 | [2] -0.01 | [3] -0.005 | quisinostat -0.004 | tipifarnib -0.009 | [4] -0.008 | [5] -0.001 | [6] -0.012

PARP14 (UniProt Q460N5)
inactive: nilotinib 0.004 | [1] -0.022 | dasatinib -0.024 | [2] 0.068 | [3] 0.256 | quisinostat -0.025 | tipifarnib -0.068 | [4] 0.128 | [5] 0.051 | [6] -0.09

PFKM isoform 3 (UniProt P08237)
inactive: nilotinib 0 | [1] 0.005 | dasatinib 0.012 | [2] 0.006 | [3] 0.025 | quisinostat -0.039 | tipifarnib -0.011 | [4] 0.013 | [5] -0.003 | [6] 0.012

PFDN6 (UniProt O15212)
inactive: nilotinib 0.035 | [1] -0.001 | dasatinib 0.018 | [2] 0.051 | [3] -0.01 | quisinostat -0.013 | tipifarnib 0.048 | [4] -0.037 | [5] -0.006 | [6] 0.025

PEBP1 (UniProt P30086)
inactive: nilotinib 0.009 | [1] -0.012 | dasatinib 0.004 | [2] -0.002 | [3] -0.053 | quisinostat 0.037 | tipifarnib 0.015 | [4] -0.034 | [5] -0.009 | [6] 0.02
